Test results as given in publication PMC13493903.
These are yes or no findings as the source states them, for the method shown. In cells and extracts the contact can be indirect. Some results given as binding are weak or reduced against the parent protein; the word gives no strength.

Protein sequences, listed by entry. Tags and fused reporters are not part of them.
UniProt P27986: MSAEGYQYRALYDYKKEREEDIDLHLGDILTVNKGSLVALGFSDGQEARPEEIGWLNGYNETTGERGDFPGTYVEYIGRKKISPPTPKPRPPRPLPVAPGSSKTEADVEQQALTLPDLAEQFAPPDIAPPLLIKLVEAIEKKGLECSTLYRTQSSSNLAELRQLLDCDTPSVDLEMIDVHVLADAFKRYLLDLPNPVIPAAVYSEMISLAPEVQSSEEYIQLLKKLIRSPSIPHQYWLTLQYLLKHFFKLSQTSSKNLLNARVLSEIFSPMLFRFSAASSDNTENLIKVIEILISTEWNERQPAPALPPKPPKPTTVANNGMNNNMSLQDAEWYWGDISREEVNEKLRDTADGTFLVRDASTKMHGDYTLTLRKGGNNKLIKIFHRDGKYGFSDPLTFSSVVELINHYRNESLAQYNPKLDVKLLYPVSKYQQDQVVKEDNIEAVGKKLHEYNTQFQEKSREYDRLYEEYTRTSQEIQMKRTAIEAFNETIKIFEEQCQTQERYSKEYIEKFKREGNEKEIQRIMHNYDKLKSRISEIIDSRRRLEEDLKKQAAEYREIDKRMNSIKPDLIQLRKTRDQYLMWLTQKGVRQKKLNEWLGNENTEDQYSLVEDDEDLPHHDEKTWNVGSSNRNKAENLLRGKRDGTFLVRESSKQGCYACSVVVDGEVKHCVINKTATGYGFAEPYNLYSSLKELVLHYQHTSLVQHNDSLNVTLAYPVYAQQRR

Target: T1, Lymphocyte antigen 6 family member H (LY6H) (human (endogenous in Huh7)) (UniProt O94772)
T1 sequence: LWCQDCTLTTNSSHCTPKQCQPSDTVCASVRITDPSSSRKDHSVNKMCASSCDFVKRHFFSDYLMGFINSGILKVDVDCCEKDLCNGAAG
Test: co-IP; Huh7 cells (control and LY6H-overexpressing) lysed in RIPA buffer with protease and phosphatase inhibitors; 2 ug anti-LY6H antibody or IgG control overnight at 4 C, Protein A/G magnetic beads, four washes with PBS; Western blot with anti-PI3K or anti-p-PI3K antibody

| Substance | binding |
| --- | --- |
| PI3K p85 subunit (total PI3K) (from UniProt P27986 1-724) | binds |
| phosphorylated PI3K p85 (Tyr467) (from UniProt P27986 1-724) | binds |
